# From PMC7000732, “Bridging non-overlapping reads illuminates high-order epistasis between distal protein sites in a GPCR” (Nature Communications, 2020)
# Numbering of substitutions follows the chain as printed. Names may count otherwise.
# B1: TGRIA: Variant GRIA (T88/Q89G/W246R/L249I/H250A) of human adenosine A2a receptor (protein, UniProt P29274 1-412, looked up, variant Q89G W246R L249I H250A)
# Adenosine receptor A2a: MPIMGSSVYITVELAIAVLAILGNVLVCWAVWLNSNLQNVTNYFVVSLAAADIAVGVLAIPFAITISTGFCAACHGCLFIACFVLVLTGSSIFSLLAIAIDRYIAIRIPLRYNGLVTGTRAKGIIAICWVLSFAIGLTPMLGWNNCGQPKEGKNHSQGCGEGQVACLFEDVVPMNYMVYFNFFACVLVPLLLMLGVYLRIFLAARRQLKQMESQPLPGERARSTLQKEVHAAKSLAIIVGLFALCRLPIAIINCFTFFCPDCSHAPLWLMYLAIVLSHTNSVVNPFIYAYRIREFRQTFRKIIRSHVLRQQEPFKAAGTSARVLAAHGSDGEQVSLRLNGHPPGVWANGSAPHPERRPNGYALGLVSGGSAQESQGNTGLPDVELLSHELKGVCPEPPGLDDPLAQDGAGVS
# B2: SLNIG: A2aR variant; letters are residues at T88, Q89, W246, L249, H250 (protein, UniProt P29274 1-412, looked up, variant T88S Q89L W246N L249I H250G)
# Adenosine receptor A2a: B1 Adenosine receptor A2a with T88S, G89L, R246N, A250G
# Experiment: FACS-based screen of A2aR library with deep sequencing (BRIDGE): variant enrichment
# Type: cell-based, Saccharomyces cerevisiae
row,Molecule,fold lower abundance in the PS4 population
1,B1,~ 17 fold
2,B2,~12 fold
